From PubChem BioAssay AID504594 (Broad Institute, 2011)
The campaign covered roughly 2,000 compounds. Fewer than 10 were called active.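 The calls were made as follows: active = growth inhibition of at least 75% in every replicate, which also brings the mean inhibition to 75% or more; inconclusive = mean inhibition 75% or more but some replicate under 75%; inactive = the rest.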 The list shows a part of the results.

experiment: reduced viability of yeast carrying PfHsp90 – S. cerevisiae, BacTiter-Glo luminescence, antimalarial PfHsp90 inhibitor project, primary screen (AID 504594);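 also: 0% = DMSO neutral control wells and 100% = 20 µM radicicol control wells; higher value means stronger growth inhibition because the sign is flipped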; conditions: S. cerevisiae expressing PfHsp90, BacTiter-Glo growth, 48 h; at 9.4 µM; stronger effect = higher value

Row | SMILES | growth inhibition
1 | O=C(Cc1ccccc1)NCC(=O)OCC(=O)c1ccccc1Cl | inactive: -1.41%
2 | Cc1cnc(C(=O)N2CCCC(C(=O)c3ccc(Cl)cc3C)C2)cn1 (stereo not given) | inactive: 0.89%
3 | CCOc1ccc(C(=O)Nc2ccc(N3CCN(C(C)=O)CC3)cc2)cc1[N+](=O)[O-] | inactive: 1.08%
4 | Cn1c(Oc2ccc3c(c2)OCO3)nc2c1c(=O)n(Cc1ccccc1)c(=O)n2C | inactive: 5.1%
5 | Fc1cccc(Cc2noc(CN3CCN(c4cnccn4)CC3)n2)c1 | inactive: -2%
6 | COc1ccc2c(=O)c(-c3cnn(-c4ccccc4)c3)c(C)oc2c1 | inactive: 5.41%
7 | CC(C)(C)NC[C@H](O)COc1nsnc1N1CCOCC1 | inactive: -4.62%
8 | C[C@]12CCC(=O)C=C1CC[C@@H]1[C@@H]2[C@@H](O)C[C@@]2(C)[C@H]1CC[C@]2(O)C(=O)COC(=O)CCC(=O)O | inactive: 3.79%
9 | COc1ccc(CC(=O)NCC2(c3ccc(OC)c(OC)c3)CCOCC2)cc1 | inactive: 0.87%
10 | O=C(O)[C@H](Cc1ccccc1)NC(=O)N1CCC(Cc2ccccc2)CC1 | inactive: -1.3%
11 | COc1cc(COc2ccc3c(C)c(Cc4ccccc4)c(=O)oc3c2)cc(OC)c1OC | inactive: 3.7%
12 | CC(C)(C)N(Cc1ccccc1)C(=O)c1ccc(Br)o1 | inactive: 15.4%
13 | CC(COc1ccccc1)N(CCCl)Cc1ccccc1 (stereo not given) | inactive: -3.68%
14 | CCOC(=O)C(Cc1cc(C(C)=O)ccc1OC(C)C)C(=O)OCC | inactive: 8.38%
15 | COc1ccc(CN(CCN(C)C)c2ccccn2)cc1 | inactive: 1%
16 | CCCNC(C)C(=O)Nc1ccccc1C (stereo not given) | inactive: 6.27%
17 | CCCCC[C@H](O)/C=C/[C@@H]1[C@@H](C/C=C\CCCC(=O)O)[C@@H](O)C[C@H]1O | inactive: -8.27%
18 | CN(CCO)CC(O)Cn1cnc2c1c(=O)n(C)c(=O)n2C (stereo not given) (tested in a mixture with another compound) | inactive: -7.75%
19 | Cc1nc(C(=O)Nc2ccccc2Cl)cc2c1[nH]c1ccccc12 | inactive: 6.77%
20 | COc1ccc2c(c1OC)C(=O)NC(C)=C(C(=O)OC(C)(C)C)C2O (stereo not given) | inactive: -1.33%
21 | O=C1NC2(Nc3ccccc31)C(=O)Nc1ccc(Br)cc12 (stereo not given) | inactive: 6.7%
22 | COc1ccc(CNC(=O)c2c(O)c3cccc4c3n(c2=O)CCC4)cc1 | inactive: 8.31%
23 | CC(=O)NC(Cc1ccccc1)C(=O)OCC(=O)c1ccccc1 (stereo not given) | inactive: 0.5%
24 | Cc1ccc2occ(C(=O)c3ccco3)c(=O)c2c1 | inactive: 0.389%
25 | O=C(NC(CO)Cc1ccc([N+](=O)[O-])cc1)C(Cl)Cl (stereo not given) | inactive: -5.86%

An excerpt from above in order of formula weight, high to low.
Row | SMILES | growth inhibition
21 | O=C1NC2(Nc3ccccc31)C(=O)Nc1ccc(Br)cc12 (stereo not given) | inactive: 6.7%
7 | CC(C)(C)NC[C@H](O)COc1nsnc1N1CCOCC1 | inactive: -4.62%
15 | COc1ccc(CN(CCN(C)C)c2ccccn2)cc1 | inactive: 1%
